Reference: patent publication US20040063745A1, “2-amino-4-(pyridin-2-yl)-thiazole derivatives as transforming growth factor beta (tgf-beta) inhibitors” (priority 2001, published 2004)
Some of these results come from one statement about several compounds together.

Target: T1, kinase Alk5 receptor (Homo sapiens, UniProt P36897)
T1 construct: The protein (amino acids 162 to 503) was 6-His tagged in C-terminus; 6-His (C); made in house; host or cells: baculovirus/Sf9
T1 sequence (P36897 162-503): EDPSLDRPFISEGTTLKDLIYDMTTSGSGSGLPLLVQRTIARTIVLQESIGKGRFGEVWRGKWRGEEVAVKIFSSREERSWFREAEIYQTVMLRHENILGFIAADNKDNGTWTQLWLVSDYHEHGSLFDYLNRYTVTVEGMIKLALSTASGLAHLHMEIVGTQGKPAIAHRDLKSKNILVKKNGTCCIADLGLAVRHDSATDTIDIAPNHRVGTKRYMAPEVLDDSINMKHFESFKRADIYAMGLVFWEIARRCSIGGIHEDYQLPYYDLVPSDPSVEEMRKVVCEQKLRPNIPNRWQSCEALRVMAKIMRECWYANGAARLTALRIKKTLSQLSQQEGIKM
Experiment: Assay 2: Alk5 kinase autophosphorylation assay
Format: biochemical
Settings: Alk5 kinase domain (amino acids 162 to 503) autophosphorylation, 3 μM ATP, 15 minutes at 37° C.

Nc1nc(-c2ccccn2)c(-c2ccc3ncccc3n2)s1 [Example 2, 5-([1,5]Naphthyridin-2-yl)4-pyridin-2-yl-1,3-thiazol-2-amine]
IC50: ≤ 1000 nM
